# Experimental data from PubChem BioAssay AID1347423 (Functional Genomics Laboratory (NCATS/FGL), 2020).
# The campaign covered roughly 52,000 sequences. About 210 (0.4%) were called active.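 How the source made its calls: active means gene whose silencing raises cell survival under the drug, median off-target-corrected z-score across its silencing RNAs 2 or more; inactive means the rest.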 The list shows a part of the results.
# Experiment: Resistance to Poly (ADP-Ribose) Polymerase inhibitor: Gene Identification via Genome-wide siRNA Screen
# Conditions: mouse BRCA2 R2336H ES cells, olaparib, CellTiter-Glo viability; hits give high values
# Procedure, shortened: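 Genome-wide siRNA screen (3 siRNAs/gene, 20 nM) in mouse ES cells carrying hypomorphic BRCA2 R2336H; olaparib 500 nM added 48 h post-transfection, CellTiter-Glo viability 72 h later. Normalized to plate-median negative control; MAD z-scores, gene median, seed-adjusted.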
row,Sequence,z-score
1,GGAAGGCACGUGAAUGGUGTT against AI606181,inactive: 0.835
2,GGCUUAGCCUUUUCUUCCCTT against 5730593N15Rik,inactive: -0.352
3,GCAGAUAACAACAGUUGAATT against B3gat2,inactive: -0.122
4,CCGUUGCCUGAUAAGUUCUTT against Klf3,inactive: 1.05
5,GCGGAUCAAUGUCUUGCCATT against Asl,inactive: 1.44
6,GCCACACAGUUUCAUCUCATT against Alg12,inactive: 0.482
7,GGAACAAUCACACAAGCUGTT against Gsh2,inactive: 0.562
8,GGCUGCUUAUUUCUGAAUCTT against Pcdha11,inactive: 0.929
9,GGCAUUAUUAACAAGAUUGTT against Eif2b1,inactive: -0.127
10,GGUAGAGAGACUGUAAUUATT against Ppp2r1b,inactive: -1.33
11,CGUAUACUGUGAUUGAUAUTT against Lcn5,inactive: 0.502
12,GGUACUCAUCCCUUCCUGATT against Mc1r,inactive: -0.647
13,GGAACAUCUCUGAAUUAUGTT against Ndel1,inactive: 0.872
14,GCUGUAUUGUGCAAAUGGCTT against Prkci,inactive: -0.617
15,GGCUAUCUAAUCUUCCCGGTT against D14Ertd231e,inactive: -0.304
16,GGAGGAUACCUUCUUCUACTT against Mta3,inactive: 0.46
17,GCCUCCAUUAUUUGUUCUGTT against Olfr1058,inactive: 0.218
18,GCUAUGCACUUUGUGGACCTT against Zpbp2,inactive: 0.148
19,CCUCUAUGAGUGUAAACCATT against Crim1,inactive: -0.379
20,GGCCAAGUCUCCAAUUCUATT against Zec,inactive: 0.595
21,CCUUCCUUCGAAUUCGCUCTT against Dncl2a,inactive: 0.404
22,GGACAGGAUGGAUGGAAGUTT against Ing5,inactive: 0.353
23,GGGUUCGAGAAAAAAUUGATT against D19Ertd721e,inactive: -0.296
24,GGAAGGAGAAGAAAACAUATT against 2410016F19Rik,inactive: -2.83
25,GCAAGAUCUGUGUAAAUGGTT against Gpx4,inactive: -3.27
26,GCAUGGGUGAUCUCUGUAATT against LOC387334,inactive: -1.28

row,Sequence,z-score
1,GGCUCUAAACAAAAUUCAGTT against Gtf2e2,inactive: 0.522
2,GGUGUAAUUGGGAAAAUUCTT against Inpp5f,inactive: 0.585
3,GGACCAGGUUUGUUUUUUATT against Epb7.2,inactive: 0.642
4,CGGUGCAUACUCAAUAAACTT against Spag11,inactive: 0.592
5,GGUCUGAUUGUCCUCUCUUTT against AB041549,inactive: -1.46
6,GGAAUUGGAUGCCAUCAUCTT against Tnnc2,inactive: -1.07
7,GGCCAUUUCCGUUUUAGGATT against Olfr319,inactive: -0.267
8,GGUGCAAGUUCGAACCAAGTT against Cdca8,inactive: -1.24
9,GCGGCUUUGUAUACAAGUUTT against A830006F12Rik,inactive: -2.32
10,GGUCUUUCUAUACAUCCUATT against Qscn6,inactive: 1.04
11,GGAAAUGAAGAGUGUUGAATT against Slc7a3,inactive: -1.02
12,GGAAGCCAAAGGUCUCAACTT against 2300002G24Rik,inactive: -0.0255
13,GGAGGGAACAUGUGGAAGUTT against 2410091C18Rik,inactive: -0.903
14,GCUCUAUAAGCUAUCAGGGTT against Ntn1,inactive: 0.616
15,CCAUCGGCGACUUGAAGAATT against Ubl5,inactive: -3.34
16,GGCAAAAGAACAAAGAAAATT against Mrps5,inactive: 0.603
17,GGGAUUCUAGACCAAUCCATT against 9130005N14Rik,inactive: 0.263
18,GCGUGUUGUGAUGUCACCUTT against D10Ertd214e,inactive: -2.79
19,GGUAGUGAGCAUUGAGAAGTT against Tbc1d8,inactive: 0.895
20,GGACCACCUAAGUUUAAGCTT against Pde6g,active: 2.55
21,GGAAGAAUUUCUUGAGACATT against Gsta4,inactive: 0.137
22,GGAGAGACAUCCAAAAGUATT against H60,inactive: -0.237
23,GUCCCAACUCCGCUUUGUUTT against V1rc13,inactive: -1.72
24,CGCCAAAAGUUCUUGCCAUTT against Olfr618,inactive: 1.19
25,GGCUUUUGACUUCUUUGAGTT against Hs1bp3,inactive: 0.298
26,GGCUCUUGGUCCAAUAAAATT against Zdhhc14,inactive: 0.215

row,Sequence,z-score
1,GUCACUGUGAUGGGAAAUUTT against Olfr895,inactive: -0.545
2,GCUACUCAGUCAACUCAAGTT against Ppp1r14d,inactive: -0.141
3,GGGAGUUAUAUAAAUGCAUTT against Taf7l,inactive: 0.433
4,GCUCCAGGUCCUUAGAAUATT against Mod1,inactive: 0.844
5,GGACAUCUGGAUGUUCCCATT against BC023151,inactive: -1.29
6,ACAUUCUUGGUUGAGUGCUTT against Olfr198,inactive: 0.369
7,CGUGGUCAGGUUGUUUGAUTT against Cdk6,inactive: 0.483
8,GGCAGCAAAAACAAGAGCCTT against Hmga2,inactive: -0.353
9,GGAAGUUGAUAAGAGAGUGTT against 2410004I17Rik,inactive: -1.1
10,CGCACCCACCAUGUUUUAUTT against D930005D10Rik,inactive: 0.0158
11,GGACUCAGACAAGAUCUGCTT against Ctdsp1,inactive: 0.818
12,GCAAACGUACCAUCUACACTT against Uckl1,inactive: 1.49
13,GCACCUCCAGAAUGUUUUUTT against V1rc29,inactive: 0.194
14,GGUUUAGGUUUCAUAAUCCTT against 2310008M10Rik,inactive: -0.66
15,GGGAAAUCUAUGGUGCUGUTT against Mpz,inactive: 3.3
16,GGAUUGGAACUAUUCUGUATT against Syvn1,inactive: -0.223
17,GGUGACACAGGAGAAGAAGTT against LOC239447,inactive: -0.522
18,CCAACGACAUGUACGACCUTT against Rest,inactive: 1.69
19,GCUCAUGUUGCACUGGAAATT against A430108B07Rik,inactive: 1.06
20,GGAUUUAAGAAUGAAUGCCTT against Kcnip4,inactive: -0.00988
21,GCAAGAAGGUGAAGUGCAGTT against Fxyd7,inactive: -1.28
22,CCAGCAUAUUGGAACUACUTT against Olfr986,inactive: -1.37
23,CCGUAUCAUAACUAUCGCGTT against 5830416A07Rik,inactive: 0.84
24,CCUCUACCCAGAUUAUGCATT against Grik1,inactive: 0.0227
25,GCGAAUAAGUAACUUGGUUTT against BC035537,inactive: -0.632
26,GCCUCAUUUGCUUCACUGUTT against 5830411N06Rik,inactive: -0.489

# Four consecutive entries already listed, for reference:
row,Sequence,z-score
20,GGAUUUAAGAAUGAAUGCCTT against Kcnip4,inactive: -0.00988
21,GCAAGAAGGUGAAGUGCAGTT against Fxyd7,inactive: -1.28
22,CCAGCAUAUUGGAACUACUTT against Olfr986,inactive: -1.37
23,CCGUAUCAUAACUAUCGCGTT against 5830416A07Rik,inactive: 0.84

# 3 entries from above, with bars between the fields:
row | Sequence | z-score
15 | GGGAAAUCUAUGGUGCUGUTT against Mpz | inactive: 3.3
16 | GGAUUGGAACUAUUCUGUATT against Syvn1 | inactive: -0.223
17 | GGUGACACAGGAGAAGAAGTT against LOC239447 | inactive: -0.522

# (next part)

row,Sequence,z-score
1,GCUAUGACCAACCUAGAGATT against Sox5,inactive: -0.676
2,GGUUGCUGUUGAUGUCAGCTT against AV125803,inactive: -0.424
3,GCUCAACCUAACUUUGUGGTT against Ccdc3,inactive: -1.01
4,CCCAGGCUAUUUCAACAAUTT against Arhgef11,inactive: 2.14
5,GGUCACCGUCAAGUACGACTT against Ppp1r14b,inactive: 0.307
6,GGGAUGAUCUUAUAUGCUUTT against AA792892,inactive: 2.04
7,CCGUAGUAUCCACUGAUUGTT against Olfr1322,inactive: -0.989
8,GGGUUUUAUGACCUUCAAGTT against Zfp99,inactive: -1.02
9,GGCUCUUAAUUGCUGAGUUTT against Acadl,inactive: -0.249
10,GCGUCUUAUAUGGGUGGCUTT against Olfr1016,inactive: -1.81
11,GGUUUUUAGCCUGAGUGAGTT against Olfr688,inactive: 0.928
12,GGGCAUCGCUUUGAGAGUATT against Srprb,inactive: -0.649
13,CGUGAGGGUCAACUUCUUCTT against 1810063P04Rik,inactive: -1.9
14,GGCUUAUGACCAUGACAGCTT against Odz2,inactive: -0.359
15,CCCUAAUUUAUUCUCGGCGTT against 5-Sep,inactive: 0.142
16,GGGCCAUAUGUCUUUGCUATT against Olfr998,inactive: -0.7
17,GCUGGUGUCUCAGAUCUCATT against LOC544763,inactive: 0.117
18,GGCUUUUAACACCUUCAUUTT against C130052I12Rik,inactive: 0.512
19,GCAUACGGAAUCUUUACGGTT against Accn2,inactive: 0.872
20,GGAAUUAUGGAUUGUUAAGTT against Olfr212,inactive: -0.522
21,GGUCAGCGAACCACGAUAATT against Olfr314,inactive: -1.46
22,GGUCCAGAUCCACCAGAUUTT against Banp,inactive: -2.93
23,GCGAAUCACCACCAUCACATT against Pcbp4,inactive: -0.979
24,GGCGAUCUAUCACACUGUGTT against Chst7,inactive: 1.39
25,CGAUUGCUAAGGUGUUUGATT against Sfmbt1,inactive: -0.918
26,GGAAACUGUACAGAUAUUGTT against Fbn2,inactive: 0.52
